Experimental data published in patent US20210401968A1 (priority 2018, published 2021).
At least one compound was matched to its structure with a doubt left.

Test system: Vero cells
Type: cell-based
Settings: HSV-GS3-infected Vero cells, heat; ulipristal 0.1-10 nM

Structure (SMILES): CC(=O)[C@@]1(O)CC[C@H]2[C@@H]3CCC4=CC(=O)CCC4=C3[C@@H](c3ccc(N(C)C)cc3)C[C@@]21C [ulipristal]
- (rate of) DNA replication versus regulator dose: dependent on regulator dose
